Data reported in patent US20240174763A1 (NOVOPROTEIN SCIENTIFIC, published 2024).
These are yes or no findings as the source states them, for the method shown. Some entries that bind do so weakly or less than the wild type.

Target: recombinant monkey CD73 protein (monkey)
Assay: ELISA, recombinant monkey CD73 coated at 3 ug/mL

binding: binds
B1: humanized CQ137 monoclonal antibody (137-3) (antibody, V domains shown)
VH: QVQLVQSGAEVKKPGSSVKVSCKASGYSFTGYYIHWVRQAPGQGLEWMGRINPYNGATTYNQNFKDRVTITVDKSTSTAYMELSSLRSEDTAVYYCARFHYGAPDYWGQGTLVTVSS
VL: DIQMTQSPSSLSASVGDRVTITCKASQDINTYLTWYQQKPGKAPKTLIYRANILVDGVPSRFSGSGSGTDFTLTISSLQPEDFATYYCLQYDEFPLTFGGGTKVEIKR
